Data taken from US20160009800A1.
These are yes or no findings as the source states them, for the method shown. Some results given as binding are weak or reduced against the parent protein; the word gives no strength.

Amino acid sequences for entries named in this document (tags omitted). Residues count along the entry.
UniProt P15208, residues 28-1372: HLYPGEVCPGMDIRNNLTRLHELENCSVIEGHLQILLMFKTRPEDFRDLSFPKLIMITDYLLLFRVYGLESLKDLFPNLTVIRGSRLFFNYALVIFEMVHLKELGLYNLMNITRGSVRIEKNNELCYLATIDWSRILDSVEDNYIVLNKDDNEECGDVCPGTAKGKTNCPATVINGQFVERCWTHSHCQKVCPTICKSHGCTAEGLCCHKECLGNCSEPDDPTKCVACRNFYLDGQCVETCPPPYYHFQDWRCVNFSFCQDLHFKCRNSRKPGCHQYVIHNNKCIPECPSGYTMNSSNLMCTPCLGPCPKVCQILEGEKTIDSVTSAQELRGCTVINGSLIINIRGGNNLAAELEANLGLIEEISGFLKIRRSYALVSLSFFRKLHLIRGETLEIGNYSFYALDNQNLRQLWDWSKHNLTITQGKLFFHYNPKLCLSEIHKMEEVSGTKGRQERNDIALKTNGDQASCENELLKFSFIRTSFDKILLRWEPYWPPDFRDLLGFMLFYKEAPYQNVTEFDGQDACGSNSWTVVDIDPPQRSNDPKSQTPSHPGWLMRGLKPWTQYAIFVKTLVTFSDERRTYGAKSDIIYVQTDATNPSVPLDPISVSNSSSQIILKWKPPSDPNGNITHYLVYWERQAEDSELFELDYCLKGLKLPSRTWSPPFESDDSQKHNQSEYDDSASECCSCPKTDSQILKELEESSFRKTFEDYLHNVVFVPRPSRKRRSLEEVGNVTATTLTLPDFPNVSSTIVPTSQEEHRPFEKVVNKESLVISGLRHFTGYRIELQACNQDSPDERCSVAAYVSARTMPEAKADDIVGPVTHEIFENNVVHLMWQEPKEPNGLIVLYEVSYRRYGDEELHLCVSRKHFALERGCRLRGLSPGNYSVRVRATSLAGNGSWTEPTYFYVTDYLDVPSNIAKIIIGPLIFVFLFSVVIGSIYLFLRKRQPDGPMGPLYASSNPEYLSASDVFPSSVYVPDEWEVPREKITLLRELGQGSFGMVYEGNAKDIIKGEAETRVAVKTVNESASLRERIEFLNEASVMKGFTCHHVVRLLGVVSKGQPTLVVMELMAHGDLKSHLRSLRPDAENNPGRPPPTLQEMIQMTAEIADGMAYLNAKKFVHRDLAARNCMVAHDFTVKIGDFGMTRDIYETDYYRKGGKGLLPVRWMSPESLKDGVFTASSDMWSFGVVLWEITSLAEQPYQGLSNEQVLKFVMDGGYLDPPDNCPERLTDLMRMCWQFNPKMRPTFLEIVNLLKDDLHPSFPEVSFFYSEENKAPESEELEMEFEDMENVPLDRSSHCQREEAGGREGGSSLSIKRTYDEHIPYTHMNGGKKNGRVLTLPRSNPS

Assays:
[1] = target: rabbit insulin receptor (rabbit); assay: FACS on monocytes of rabbit PBMC and on CHO cells expressing rabbit insulin receptor, without insulin
[2] = target: mouse insulin receptor (mouse) (UniProt P15208); assay: FACS on mouse INSR; conditions not given on the sheet
[3] = target: rabbit insulin receptor (rabbit); assay: FACS on CHO cells expressing rabbit insulin receptor, without insulin
[4] = target: rabbit insulin receptor (rabbit); assay: FACS on monocytes of rabbit PBMC, without insulin
[5] = target: mouse insulin receptor (mouse) (UniProt P15208); assay: FACS on mouse INSR; conditions not given on the sheet [cont'd]
[6] = target: mouse insulin receptor (mouse) (UniProt P15208); assay: flow cytometry, biotinylated IgG on mINSR-CHOK1 cells

B1: Ab037 (antibody, V domains shown)
VH: EVQLLESGGGLVQPGGSLRLSCAASGFTFSSYEMNWVRQAPGKGLEWVSSISSSSRYADVANSVVGRFTISRDNSKNTLYLQMNSLRAEDTAVYYCARGEWLDHFDYWGQGTLVTVSS
VL: QSVLTQPPSASGTPGQRVTISCSGSSSNIGNSAVNWYQQLPGTAPKLLIYDNNKRPSGVPDRFSGSKSGTSASLAISGLRSEDEADYYCQVWDSGTAVFGGGTKLTVLG
With B1 the binding [1] was “binds”.

B2: Ab033 (antibody, V domains shown)
VH: EVQLLESGGGLVQPGGSLRLSCAASGFTFTNYNMIWVRQAPGKGLEWVSGVSWNGSRTHYADSVKGRFTISRDNSKNTLYLQMNSLRAEDTAVYYCARERGSWDTTGYYNYYYYGMDVWGQGTLVTVSS
VL: QSVLTQPPSASGTPGQRVTISCTGSSSNIGAGYDVHWYQQLPGTAPKPLIYGNSNRPSGVPDRFSGSKSGTSASLAISGLRSEDEADYYCTSYTGNNQFVIFGGGTKLTVLG
With B2 the binding [2] was “binds”.

B3: Ab050 (antibody, IgG2, V domains shown)
VH: QVQLVQSGAELKKPGATVKISCKVSGYTFGDYHMHWVKQAPGKGLEWMGLVDPENGETEYGEKFQDRITMAADTSTDTAYMELSSLRSEDTAVYYCARSPSSSGYFRVDGFDIWGQGTMVTVSS
VL: NFMLTQPHSVSESPGKTVSISCTGSSGSIGSNYVQWYQQRPGSAPTTVIYEDNQRPSGVPDRFSGSIDSSSNSASLTISGLKTEDEADYYCQSYYNSNVVFGGGTKLTVL
For B3, the binding [3] was “binds”.

B4: Ab052 (antibody, IgG2, V domains shown)
VH: EVQLVQSGAEVKKPGESLKISCKGSGYRFTSYWIGWVRQMPGRGLEWMGIIYPGDSDTRYSPSFQGQVTISVDKSISTAYLQWSSLKASDTAMYYCATHHASGRGLDPWGQGTLVTVSS
VL: QAMLTQPASLSASPGASASLTCTLRSGINVVAYNIYWYRQKSGSPPQSVLRYKSDSDSERDSGVPSRFSGSKDVSANAGILLISGLQSEDEADYYCLIWHNSAWVFGGGTQLTVL
With B4 the binding [3] was “binds”.

B5: Ab058 (antibody, V domains shown)
VH: QLQLQQWGAGLLKPSETLSLTCAVYSGSFSGYYYSWIRQSPGRGLEWIGDISHTGSTDYNPSLKTRVTISVDTSKNQFSLNLNSVTAADTAVYYCARDAPKGGSGLYLFDYWGQGTLVTVSS
VL: QSVLTQPPSVSGAPGQRVTISCTGSRSNIGADHDVHWYQQIPGRAPKLLIYGNSNRPSGVPDRFSGSRSGTSASLAITGLQAEDEADYYCQSYDNSLSGSVFGGGTKLTVL
With B5 the binding [3] was “binds”.

B6: Ab062 (antibody, IgG2, V domains shown)
VH: QVQLQQWGAGLLKPSETLSLTCAVYGGSFSGYYWSWIRQPPGKGLEWIGEINHSGSTNYNPSLKSRVTISVDTSKNQFSLKLSSVTAADTAVYYCARGPSGWYIREFDYWGQGTLVTVSS
VL: QSVLTQPPSVSGAPGQRVTISCTGSSSNIGAGYDVHWYQQLPGTAPKLLIYGNSNRPSGVPDRFSGSKSGTSASLAITGLQAEDEADYYCQSYDSSLSGSGVFGGGTKVTVL
With B6 the binding [1] was “binds”.

B7: Ab079 (antibody, IgG2, V domains shown)
VH: QMQLVQSGAEMKKPGASVKVSCKASGYSFSDYGITWVRQAPGQGPEWMGWISGYNGNTNYAQKFQDRVTMTTDTSTSTAYMELRSLKSDDTAVYFCARARGVWMFDNWGQGTLVTVSS
VL: AIRMTQSPSTLSASVGDRVTITCRASQSISTWLAWYQQKPGKAPKLLIYTTSTLESGVPSRFSGSRSGTEFTLTISSLQPDDFATYYCQQYNSYPLTFGGGTKVEIK
With B7 the binding [4] was “binds”.

B8: Ab080 (antibody, IgG2, V domains shown)
VH: EVQLVESGGGVVQPGGSLRLSCAASGFTFDDYAMHWVRQAPGKGLEWVSLISWDGGSTYYADSVKGRFTISRDNSKNSLYLQMNSLRAEDTALYYCAKARGVVIIDYWGQGTLVTVSS
VL: EIVLTQSPGTLSLSPGERATLSCRASQSLSSSFLAWYQQKPGQAPRLLIYGAGSRATGVPDRFSGSGYGTDFSLTISRLELEDFAVYYCQQYDRSQITFGQGTRLEIK
With B8 the binding [1] was “binds”.

B9: Ab048 (antibody, V domains shown)
VH: EVQLLESGGGLVQPGGSLRLSCAASGFTFSSNYMSWVRQAPGKGLEWVSAISGSGGSTYYADSVKGRFTISRDNSKNTLYLQMNSLRAEDTAVYYCARVGSSGWYYFDYWGQGTLVTVSS
VL: QSVLTQPPSASGTPGQRVTISCSGISSNIGNNFVSWYQQLPGTAPKLLIYGNSNRPSGVPDRFSGSKSGTSASLAISGLRSEDEADYYCAAWDDSPRGPVFGGGTKLTVLG
In the case of B9, the binding [5] is reported as “binds”.

B10: Ab077 (antibody, IgG2, V domains shown)
VH: EVQLVESGGGVVQPGGSLRLSCAASGFTFSSYWMTWVRQAPGKGLEWVANINQDGSEKHYVDSVKGRFTISRDNAKNSLYLQMNSLRGEDTAVYYCARGRGAWAFDYWGQGTLVTVSS
VL: DIQMTQSPSSLSASVGDRVTITCRASQGISSWLAWYQQKPGKAPKLLIYAASSLQSGVPSRFSGSGSGTDFTLTISSLQPEDFATYYCQQANSFPITFGQGTRLEIK
In the case of B10, the binding [6] is reported as “binds”.

B11: Ab064 (antibody, IgG2, V domains shown)
VH: QVQLVQSGAEVKKPGESLKISCKGSGFSFPSYWIGWVRQMPGKGLELVGIIYPGDSDIRYSPSFQGQVTISADTSISTVYLQWSSLQTTDTATYYCARGGFNWFDPWGQGTLVTVSS
VL: QAVVTQEPSLTVSPGGTVTLTCASSTGAVTSGYYPNWFQQKPGQAPRALIYSTSNKHSWTPARFSGSLLGGKAALTLSGVQPEDEAEYYCLLYYGGAQPWVFGGGTQLTVL
For B11, the binding [6] was “binds”.
